Measured values taken from the supplement of paper PMC3334620.
The full ranking holds about 33,000 sequences; the median of “E-score (-0.5 to 0.5)” is about -0.0034, and the highest 2% start at about 0.25. The list shows a part of the results.

biological target: T1, Yap3 (UniProt P38749); assay: PBM E-score (8-mer binding enrichment) (E-score (-0.5 to 0.5)); higher = stronger / more preferred TF binding; settings: protein concentration: 100 nM; construct: GST-full length
T1 sequence: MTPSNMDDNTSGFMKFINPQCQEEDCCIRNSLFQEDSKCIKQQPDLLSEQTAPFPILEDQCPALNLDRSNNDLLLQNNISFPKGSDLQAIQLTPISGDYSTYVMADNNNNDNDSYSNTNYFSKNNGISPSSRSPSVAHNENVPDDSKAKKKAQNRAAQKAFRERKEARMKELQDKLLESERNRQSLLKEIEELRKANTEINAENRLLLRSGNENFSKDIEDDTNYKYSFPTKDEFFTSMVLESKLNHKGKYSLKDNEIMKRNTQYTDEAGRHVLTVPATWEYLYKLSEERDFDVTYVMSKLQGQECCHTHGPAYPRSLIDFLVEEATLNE
Summary of the method: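 Universal all-10-mer Agilent arrays, fresh or stripped once, were converted to double-stranded form by primer extension. GST-tagged yeast transcription factors from PURExpress in vitro transcription/translation, full-length or DNA-binding domain only, were applied at about 100-200 nM and detected with fluorescent anti-GST. After masliner normalisation, the Universal PBM Analysis Suite scored each ungapped eight-base word together with its reverse complement by E-score.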

Sequence | PBM E-score
ATTGAAGG | -0.141
CCTGTGAC | -0.171
CCGGCATC | -0.253
AAGCTGAC | -0.0841
CAAACGGC | -0.0824
AATAGCGG | -0.0993
GAGTATTA | 0.164
GCAGAGTA | 0.0526
CCTTCGTC | -0.0719
CTCCGCCC | -0.229
GAGATTGC | -0.121
AGCGTAGC | -0.154
ATTCTCGG | 0.147
CTTTGGAC | -0.0335
CAAGCCTA | -0.043
GCACAAGA | 0.116
TCCCGAGA | -0.225
CAAGGTCC | -0.202
AGCTTTCG | -0.263
ACCAACGA | -0.00444
GTCACCAC | -0.0507
GATTACTA | 0.225
AAACCCCG | -0.0402
ACGAGCAT | -0.0172
CCGTACTA | 0.168

Sequence | PBM E-score
GCGGGCTA | -0.216
CACTAGCG | -0.128
CCAGGGTA | -0.165
ACGCTTAC | 0.00604
GGACCAAA | 0.0346
ACGAGTCC | -0.152
GGCCATAC | 0.00964
CCCACTCA | -0.104
CCTAGTTA | 0.0802
CATCGTAG | -0.23
AGGTATCA | 0.0264
ATCTATCC | 0.00162
ATTGTAGC | 0.0224
CATATCAC | 0.114
GTAACCCA | 0.217
AGACTTAG | -0.166
ACGACACG | 0.0948
ACGTTACG | 0.131
TATCCCAA | 0.0252
TACATTGA | 0.0621
AGTTCGGC | -0.053
TATGAGGA | -0.00735
ACTAAGAA | 0.205
AGGAACAA | 0.0752
AATAGCGC | 0.144

Retrieved one by one from above:
Sequence | PBM E-score
CCAGGGTA | -0.165
AGGTATCA | 0.0264
ATCTATCC | 0.00162
GGACCAAA | 0.0346
CACTAGCG | -0.128
AGACTTAG | -0.166
CATATCAC | 0.114

Remaining list, next part:

Sequence | PBM E-score
CTCCAGCA | -0.129
ATGACCAA | 0.136
AAAGGACC | -0.0983
CTCTGAGC | -0.248
GGTCCACA | -0.153
AACACTCG | 0.117
CTGGCCCC | -0.278
CTACTGGC | 0.00022
GTAGTCAA | -0.0796
CGGGAACC | -0.303
AAGTGTTC | 0.141
AAGTATGA | 0.0367
ATTGCTAC | 0.0125
AAGAGAAT | 0.204
TCGTAAGA | -0.087
GTGTAACA | -0.00489
CCGAACAC | 0.107
ACAAGGTA | 0.0175
AGTTAAAA | 0.221
GCCCCTAC | -0.189
GGATAGCC | -0.0918
ACCTTTAA | 0.0751
GTATATAC | 0.0969
AAACTCCG | 0.031
CATTAAGC | -0.0544

Copied from the list.
In PBM E-score, CCGGCATC reads -0.253
In PBM E-score, CAAACGGC reads -0.0824
In PBM E-score, CTCCAGCA reads -0.129
In PBM E-score, CACTAGCG reads -0.128

Following part:

Sequence | PBM E-score
CTGTCATC | -0.0204
TCGACGCA | -0.0607
AGGGTGTA | 0.0414
AGCGCACC | -0.133
GTCGACCA | -0.0665
GATTCACC | 0.00196
ACGGTCGC | -0.175
AGGCTACT | -0.166
GTCATGAA | 0.00827
AATGTGAT | 0.232
CTCGTCCA | 0.0412
AAGATCGA | 0.066
ATGTCGAC | 0.185
GCCTCGCC | -0.246
AAATGAGG | -0.0381
GACCACAC | -0.0615
GACCCCTC | -0.213
GGCCCTAC | -0.264
GCGCGCGC | 0.29
CGGAAGTC | 0.0315
AGCTTTGA | -0.0291
AAAGAGTA | 0.0272
ACCCGGCC | -0.347
CTTTGTGA | -0.053
CCTTCTCA | 0.085

Sequence | PBM E-score
AGGCAACG | -0.012
GATTGGTA | 0.305
CCTGAAAG | -0.0346
ATAAAGTC | 0.133
AGGTTATA | 0.0014
CCTCGAAG | -0.00479
ATACTGAT | 0.169
GCTGAACA | 0.0795
GGCTTCAA | -0.196
CCGTAGTA | -0.0364
AACCCGAT | 0.149
CAGCCGGC | -0.186
CAGGGTAC | -0.163
TACGGTAA | 0.212
CAGCGCTA | 0.00813
CCTGACCC | -0.198
CTAACCAA | 0.046
AGAAGGCT | -0.169
GGGAGTGA | -0.0816
CTCGCGGC | -0.182
AGCCGCCC | -0.112
CTATACTC | 0.0165
AGTGAGTG | -0.0641
CGATTCCC | 0.177
AATTCTTG | 0.101

Sequence | PBM E-score
AGTCGCAC | -0.233
ACAAAATA | 0.175
ACTCTAAC | 0.0588
GATGAATC | 0.088
CGTGTAGC | -0.103
CCGAACAG | -0.0176
AACGCCTG | -0.0935
CACTTACG | 0.123
CCATAAAA | 0.0885
ACAATATG | 0.238
ACATCACC | -0.0572
TCACAGAA | 0.0283
GACAGCCA | -0.00244
AATATATT | 0.331
CTTGAACC | 0.0903
CGCCCAAA | -0.0448
CAACCCGC | -0.0462
AACGACGC | -0.0529
ATCCCTTC | -0.0465
ACTCTCCA | -0.0772
GCCAGTGA | -0.205
CGCTGAAC | -0.0734
CGGGACGC | -0.24
AAGAGCTC | -0.251
ACAACTGT | -0.0422

Sequence | PBM E-score
CTAGCATC | -0.105
CACCTAGG | -0.0458
AAGTGCAG | -0.235
ACCCGATC | 0.026
ATCCCAAT | 0.0688
AGAGCGCA | -0.143
AACTCGAC | 0.127
AGTGCCTA | -0.171
ACTGCGAG | -0.0673
AATTTGGG | 0.194
AGTCAATC | 0.00332
AAGAGGGT | -0.251
AGGAACGC | -0.0473
GAGCATTA | 0.0912
CTTTCGGA | -0.0976
AGGTCTCC | -0.0939
CAATAGAA | 0.0522
ACTACACC | -0.0367
CTCTCTAA | -0.149
CTGAGCCC | -0.354
ATCTCCTA | -0.0776
GTGGCAAA | -0.145
